The supplement of paper PMC6411743
± gives the standard deviation of the averaged measurements. The entries are a selection whose mix differs from that of the whole data set. Small differences around the control level are noise.

Chains of the proteins cited; added tags and fusions are not shown. Lines headed by an entry give the natural chain unless they say otherwise; changes in a name come on top.
UniProt Q01415: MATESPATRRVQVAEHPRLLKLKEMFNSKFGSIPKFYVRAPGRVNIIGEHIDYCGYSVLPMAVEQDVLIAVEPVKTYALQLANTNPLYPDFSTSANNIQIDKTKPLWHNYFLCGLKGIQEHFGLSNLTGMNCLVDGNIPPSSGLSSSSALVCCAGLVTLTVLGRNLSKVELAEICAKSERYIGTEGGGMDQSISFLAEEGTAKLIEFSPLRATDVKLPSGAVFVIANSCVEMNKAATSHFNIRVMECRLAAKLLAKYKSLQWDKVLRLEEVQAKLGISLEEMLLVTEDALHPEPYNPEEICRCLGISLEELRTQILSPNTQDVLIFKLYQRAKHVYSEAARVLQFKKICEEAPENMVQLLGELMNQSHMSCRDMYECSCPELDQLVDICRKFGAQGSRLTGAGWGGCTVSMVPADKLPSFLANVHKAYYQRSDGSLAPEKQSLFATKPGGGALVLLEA
UniProt Q13761, whole entry: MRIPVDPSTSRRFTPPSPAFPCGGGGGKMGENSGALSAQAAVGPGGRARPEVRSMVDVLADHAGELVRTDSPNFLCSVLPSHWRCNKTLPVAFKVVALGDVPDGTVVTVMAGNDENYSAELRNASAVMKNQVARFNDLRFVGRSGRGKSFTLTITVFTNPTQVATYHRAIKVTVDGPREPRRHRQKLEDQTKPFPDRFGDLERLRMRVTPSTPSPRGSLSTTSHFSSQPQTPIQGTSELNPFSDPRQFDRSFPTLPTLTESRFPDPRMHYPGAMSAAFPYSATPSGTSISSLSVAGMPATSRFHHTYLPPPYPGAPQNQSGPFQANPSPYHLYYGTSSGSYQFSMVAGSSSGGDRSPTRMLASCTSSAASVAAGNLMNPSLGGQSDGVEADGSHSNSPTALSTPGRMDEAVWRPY
UniProt Q13825: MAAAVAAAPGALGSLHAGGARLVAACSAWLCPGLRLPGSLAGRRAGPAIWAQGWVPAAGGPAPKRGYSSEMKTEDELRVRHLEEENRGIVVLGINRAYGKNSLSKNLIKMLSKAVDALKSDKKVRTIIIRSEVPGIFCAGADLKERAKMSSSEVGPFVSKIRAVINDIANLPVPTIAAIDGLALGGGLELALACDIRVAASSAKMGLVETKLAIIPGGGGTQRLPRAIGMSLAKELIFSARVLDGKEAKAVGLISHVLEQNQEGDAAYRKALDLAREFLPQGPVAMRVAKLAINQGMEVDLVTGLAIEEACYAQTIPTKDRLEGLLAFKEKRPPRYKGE
UniProt Q13601: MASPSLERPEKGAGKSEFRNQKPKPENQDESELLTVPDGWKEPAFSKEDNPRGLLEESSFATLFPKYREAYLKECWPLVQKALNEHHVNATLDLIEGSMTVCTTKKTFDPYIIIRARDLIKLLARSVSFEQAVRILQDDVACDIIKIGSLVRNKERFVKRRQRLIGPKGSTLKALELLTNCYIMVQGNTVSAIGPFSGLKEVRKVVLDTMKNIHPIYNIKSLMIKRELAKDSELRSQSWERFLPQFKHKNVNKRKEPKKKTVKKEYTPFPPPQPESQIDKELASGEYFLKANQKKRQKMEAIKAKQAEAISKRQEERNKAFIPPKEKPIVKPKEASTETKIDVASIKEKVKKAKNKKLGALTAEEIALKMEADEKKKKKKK
UniProt Q12805: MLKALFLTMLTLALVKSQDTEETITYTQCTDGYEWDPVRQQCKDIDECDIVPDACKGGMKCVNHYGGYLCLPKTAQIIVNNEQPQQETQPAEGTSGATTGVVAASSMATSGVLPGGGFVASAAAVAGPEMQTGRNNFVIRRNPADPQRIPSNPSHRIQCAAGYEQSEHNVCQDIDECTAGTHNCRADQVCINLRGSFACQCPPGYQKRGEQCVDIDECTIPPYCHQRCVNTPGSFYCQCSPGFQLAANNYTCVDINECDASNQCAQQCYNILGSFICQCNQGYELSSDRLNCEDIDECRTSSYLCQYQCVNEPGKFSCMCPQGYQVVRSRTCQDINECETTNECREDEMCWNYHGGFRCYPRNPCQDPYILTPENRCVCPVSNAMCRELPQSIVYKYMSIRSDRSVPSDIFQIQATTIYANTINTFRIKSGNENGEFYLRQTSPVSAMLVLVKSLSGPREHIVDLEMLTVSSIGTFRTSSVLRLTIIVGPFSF
UniProt Q13438: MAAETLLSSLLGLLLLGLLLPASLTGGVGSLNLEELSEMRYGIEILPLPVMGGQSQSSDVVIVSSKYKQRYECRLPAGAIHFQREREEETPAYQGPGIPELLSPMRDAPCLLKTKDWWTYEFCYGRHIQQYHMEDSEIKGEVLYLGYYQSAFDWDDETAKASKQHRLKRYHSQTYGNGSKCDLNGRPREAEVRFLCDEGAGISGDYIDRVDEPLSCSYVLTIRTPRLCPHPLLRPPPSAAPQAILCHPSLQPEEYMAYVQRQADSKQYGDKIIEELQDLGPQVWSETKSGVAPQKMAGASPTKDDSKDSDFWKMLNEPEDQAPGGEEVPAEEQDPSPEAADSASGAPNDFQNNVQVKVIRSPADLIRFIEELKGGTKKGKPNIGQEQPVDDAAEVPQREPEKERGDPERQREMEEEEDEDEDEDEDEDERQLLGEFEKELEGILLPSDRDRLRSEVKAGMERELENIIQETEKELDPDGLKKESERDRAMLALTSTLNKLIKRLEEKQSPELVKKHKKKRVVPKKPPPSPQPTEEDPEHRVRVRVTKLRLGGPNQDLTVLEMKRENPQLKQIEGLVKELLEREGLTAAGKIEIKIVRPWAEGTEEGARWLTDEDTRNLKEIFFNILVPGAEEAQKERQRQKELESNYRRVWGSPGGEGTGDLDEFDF

Compound: Nc1ncnc2c1ncn2[C@@H]1O[C@H](COP(=O)(O)OP(=O)(O)OP(=O)(O)O)[C@@H](O)[C@H]1O [adenosine triphosphate]
Experiment: NP40-soluble protein abundance relative to vehicle (solubility fold change) (ratio); higher = more soluble protein in presence of ATP
How it was run: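 Eight concentrations, 0.1 to 10 mM, were tested on Jurkat crude lysate for 10 min at room temperature and then 3 min at 37 °C, in three independent experiments. The lysate was solubilised with 0.8% NP40 and benzonase, ultracentrifuged, and the supernatant TMT-labelled for LC-MS/MS. Each value is the fold change against the detergent-processed vehicle in its own replicate, from vsn-normalised intensities.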

Target | NP40-soluble protein abundance (concentration: 0.1mM) | NP40-soluble protein abundance (concentration: 0.5mM) | NP40-soluble protein abundance (concentration: 1mM) | NP40-soluble protein abundance (concentration: 2mM) | NP40-soluble protein abundance (concentration: 4mM) | NP40-soluble protein abundance (concentration: 6mM) | NP40-soluble protein abundance (concentration: 8mM) | NP40-soluble protein abundance (concentration: 10mM)
GALK2 (UniProt Q01415) | 0.996 ± 0.071 | 0.965 ± 0.076 | 0.938 ± 0.068 | 0.975 ± 0.073 | 0.985 ± 0.012 | 0.86 ± 0.12 | 0.956 ± 0.066 | 0.968 ± 0.037
UniProt Q13761 and related entries | 1.17 ± 0.28 | 1 ± 0.027 | 1.07 ± 0.2 | 1.18 ± 0.35 | 1.18 ± 0.3 | 1.19 ± 0.31 | 1.13 ± 0.23 | 1.18 ± 0.13
AUH (UniProt Q13825) | 1.02 ± 0.037 | 1.008 ± 0.0041 | 0.96 ± 0.062 | 0.979 ± 0.049 | 0.967 ± 0.035 | 0.93 ± 0.082 | 0.96 ± 0.055 | 0.973 ± 0.036
KRR1 (UniProt Q13601) | 1.02 ± 0.014 | 1.13 ± 0.055 | 1.12 ± 0.012 | 1.16 ± 0.043 | 1.23 ± 0.066 | 1.27 ± 0.047 | 1.29 ± 0.026 | 1.42 ± 0.033
UniProt Q12805 and related entries | 1.05 ± 0.052 | 0.986 ± 0.036 | 1.03 ± 0.091 | 1.04 ± 0.052 | 1.06 ± 0.075 | 1 ± 0.088 | 1.05 ± 0.023 | 1.04 ± 0.025
UniProt Q13438 and related entries | 0.994 ± 0.023 | 0.998 ± 0.058 | 0.953 ± 0.036 | 0.953 ± 0.049 | 0.94 ± 0.056 | 0.99 ± 0.069 | 0.939 ± 0.031 | 0.952 ± 0.045
